Data reported in the supplement of paper PMC10849652.
The other results are listed elsewhere or left out.

Sequences of proteins named here, by UniProt entry; tags and fusion partners are left off. A change or cut given only in a name is not applied to a line headed by its entry.
UniProt Q8N0X4: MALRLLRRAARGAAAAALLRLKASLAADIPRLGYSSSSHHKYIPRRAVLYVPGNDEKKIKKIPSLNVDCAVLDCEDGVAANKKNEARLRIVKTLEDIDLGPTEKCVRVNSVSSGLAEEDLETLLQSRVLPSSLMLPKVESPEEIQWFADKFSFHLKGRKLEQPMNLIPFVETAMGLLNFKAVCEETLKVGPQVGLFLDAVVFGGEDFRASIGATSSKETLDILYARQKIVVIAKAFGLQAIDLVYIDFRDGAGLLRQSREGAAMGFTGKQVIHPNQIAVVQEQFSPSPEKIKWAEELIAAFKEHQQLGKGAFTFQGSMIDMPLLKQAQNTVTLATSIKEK
UniProt Q9NSE2: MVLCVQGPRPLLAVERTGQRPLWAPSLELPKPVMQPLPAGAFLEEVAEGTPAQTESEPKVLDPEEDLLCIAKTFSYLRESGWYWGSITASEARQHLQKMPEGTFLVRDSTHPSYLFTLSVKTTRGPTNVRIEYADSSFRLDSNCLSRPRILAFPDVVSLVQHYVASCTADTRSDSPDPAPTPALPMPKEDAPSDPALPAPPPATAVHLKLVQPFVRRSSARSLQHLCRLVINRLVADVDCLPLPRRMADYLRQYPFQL
UniProt O14647: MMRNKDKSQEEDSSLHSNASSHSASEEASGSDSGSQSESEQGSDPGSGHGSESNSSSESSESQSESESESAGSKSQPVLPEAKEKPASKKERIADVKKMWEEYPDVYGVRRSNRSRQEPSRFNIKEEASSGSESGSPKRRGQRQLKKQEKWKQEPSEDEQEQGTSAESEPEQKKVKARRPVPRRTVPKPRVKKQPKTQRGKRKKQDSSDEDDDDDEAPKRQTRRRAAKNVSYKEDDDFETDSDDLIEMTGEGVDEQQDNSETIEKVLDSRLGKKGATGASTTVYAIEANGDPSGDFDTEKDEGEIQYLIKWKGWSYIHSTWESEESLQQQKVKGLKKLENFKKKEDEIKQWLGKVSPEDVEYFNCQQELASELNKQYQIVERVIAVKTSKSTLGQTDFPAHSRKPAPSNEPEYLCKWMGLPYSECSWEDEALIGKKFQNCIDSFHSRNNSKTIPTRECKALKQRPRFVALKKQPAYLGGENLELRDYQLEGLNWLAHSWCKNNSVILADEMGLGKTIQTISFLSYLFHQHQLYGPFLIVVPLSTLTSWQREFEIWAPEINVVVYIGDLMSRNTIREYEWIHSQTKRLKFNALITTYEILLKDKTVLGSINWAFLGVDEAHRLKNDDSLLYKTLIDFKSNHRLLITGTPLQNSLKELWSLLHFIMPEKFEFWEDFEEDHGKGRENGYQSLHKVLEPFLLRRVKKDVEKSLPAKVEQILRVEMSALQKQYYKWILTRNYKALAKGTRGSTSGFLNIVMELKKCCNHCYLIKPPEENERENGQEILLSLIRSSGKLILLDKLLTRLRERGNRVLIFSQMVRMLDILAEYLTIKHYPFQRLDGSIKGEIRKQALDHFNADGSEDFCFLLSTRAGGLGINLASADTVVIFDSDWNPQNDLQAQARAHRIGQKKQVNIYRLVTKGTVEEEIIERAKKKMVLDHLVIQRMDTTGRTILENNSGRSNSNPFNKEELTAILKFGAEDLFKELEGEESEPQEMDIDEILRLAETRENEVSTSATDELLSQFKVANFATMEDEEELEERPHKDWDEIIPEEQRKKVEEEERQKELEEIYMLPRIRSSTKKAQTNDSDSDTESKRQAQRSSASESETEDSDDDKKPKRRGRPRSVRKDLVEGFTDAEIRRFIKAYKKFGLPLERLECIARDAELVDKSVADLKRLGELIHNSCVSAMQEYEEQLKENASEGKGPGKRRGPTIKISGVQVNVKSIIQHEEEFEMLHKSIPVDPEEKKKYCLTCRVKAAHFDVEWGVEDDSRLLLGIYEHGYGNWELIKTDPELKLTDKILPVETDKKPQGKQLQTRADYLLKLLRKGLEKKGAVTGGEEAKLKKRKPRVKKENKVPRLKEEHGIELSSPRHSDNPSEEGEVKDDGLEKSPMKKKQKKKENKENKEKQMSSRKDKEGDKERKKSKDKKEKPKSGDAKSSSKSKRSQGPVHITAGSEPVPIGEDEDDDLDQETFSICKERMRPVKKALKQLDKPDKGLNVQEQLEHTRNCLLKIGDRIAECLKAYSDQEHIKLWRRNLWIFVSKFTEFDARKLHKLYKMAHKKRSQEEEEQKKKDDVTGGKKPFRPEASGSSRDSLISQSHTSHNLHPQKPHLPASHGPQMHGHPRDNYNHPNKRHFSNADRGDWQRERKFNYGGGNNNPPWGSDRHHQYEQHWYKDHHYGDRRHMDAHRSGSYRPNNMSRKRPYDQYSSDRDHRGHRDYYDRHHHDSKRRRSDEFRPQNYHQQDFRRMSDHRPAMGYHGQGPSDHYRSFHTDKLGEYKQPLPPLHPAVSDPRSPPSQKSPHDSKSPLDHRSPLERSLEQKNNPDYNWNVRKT
UniProt P33552, whole entry, looked up: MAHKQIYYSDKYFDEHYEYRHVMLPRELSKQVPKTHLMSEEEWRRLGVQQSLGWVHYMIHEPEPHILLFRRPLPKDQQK
UniProt Q9BUK0: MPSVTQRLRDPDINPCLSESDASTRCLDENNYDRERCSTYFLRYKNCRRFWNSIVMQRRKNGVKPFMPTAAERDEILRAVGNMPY
UniProt O75503: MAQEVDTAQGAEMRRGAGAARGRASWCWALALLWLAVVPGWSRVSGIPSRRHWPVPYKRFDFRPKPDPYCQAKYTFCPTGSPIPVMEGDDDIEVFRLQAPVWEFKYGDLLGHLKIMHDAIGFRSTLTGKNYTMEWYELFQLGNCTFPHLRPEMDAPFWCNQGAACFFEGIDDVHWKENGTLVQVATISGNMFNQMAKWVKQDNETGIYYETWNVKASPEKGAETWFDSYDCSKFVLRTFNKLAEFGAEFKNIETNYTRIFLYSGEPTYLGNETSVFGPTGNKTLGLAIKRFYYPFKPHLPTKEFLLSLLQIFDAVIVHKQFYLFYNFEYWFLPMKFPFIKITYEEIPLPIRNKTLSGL
UniProt P49761: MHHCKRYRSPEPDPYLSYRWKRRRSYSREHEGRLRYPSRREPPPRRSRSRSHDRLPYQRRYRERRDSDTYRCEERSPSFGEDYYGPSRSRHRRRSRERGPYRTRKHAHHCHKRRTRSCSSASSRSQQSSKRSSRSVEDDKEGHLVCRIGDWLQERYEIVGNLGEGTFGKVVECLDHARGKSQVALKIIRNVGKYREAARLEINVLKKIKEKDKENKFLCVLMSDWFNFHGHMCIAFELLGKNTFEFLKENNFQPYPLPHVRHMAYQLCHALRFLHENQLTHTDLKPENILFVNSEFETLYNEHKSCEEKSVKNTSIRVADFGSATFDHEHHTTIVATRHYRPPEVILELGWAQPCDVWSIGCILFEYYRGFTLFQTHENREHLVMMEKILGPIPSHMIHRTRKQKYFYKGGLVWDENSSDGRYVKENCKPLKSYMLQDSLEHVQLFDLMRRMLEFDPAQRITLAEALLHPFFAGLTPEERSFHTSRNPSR
UniProt Q96EP1: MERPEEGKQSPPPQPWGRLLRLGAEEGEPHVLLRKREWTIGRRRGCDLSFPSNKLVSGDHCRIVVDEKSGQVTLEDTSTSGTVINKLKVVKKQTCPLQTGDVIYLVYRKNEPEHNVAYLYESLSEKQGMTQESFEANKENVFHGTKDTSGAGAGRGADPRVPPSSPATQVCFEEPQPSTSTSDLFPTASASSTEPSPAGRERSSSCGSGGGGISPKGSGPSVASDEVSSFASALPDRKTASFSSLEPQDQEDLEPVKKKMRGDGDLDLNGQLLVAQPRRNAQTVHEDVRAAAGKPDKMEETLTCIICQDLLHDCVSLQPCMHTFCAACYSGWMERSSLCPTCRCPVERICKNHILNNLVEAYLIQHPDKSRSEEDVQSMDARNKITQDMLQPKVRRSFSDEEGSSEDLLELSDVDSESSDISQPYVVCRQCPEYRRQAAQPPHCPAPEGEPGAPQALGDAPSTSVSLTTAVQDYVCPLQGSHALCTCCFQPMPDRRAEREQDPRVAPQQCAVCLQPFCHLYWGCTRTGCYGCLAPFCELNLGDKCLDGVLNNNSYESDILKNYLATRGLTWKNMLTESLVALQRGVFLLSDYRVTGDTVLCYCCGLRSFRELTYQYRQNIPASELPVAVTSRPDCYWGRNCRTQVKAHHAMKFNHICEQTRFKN
UniProt P30622: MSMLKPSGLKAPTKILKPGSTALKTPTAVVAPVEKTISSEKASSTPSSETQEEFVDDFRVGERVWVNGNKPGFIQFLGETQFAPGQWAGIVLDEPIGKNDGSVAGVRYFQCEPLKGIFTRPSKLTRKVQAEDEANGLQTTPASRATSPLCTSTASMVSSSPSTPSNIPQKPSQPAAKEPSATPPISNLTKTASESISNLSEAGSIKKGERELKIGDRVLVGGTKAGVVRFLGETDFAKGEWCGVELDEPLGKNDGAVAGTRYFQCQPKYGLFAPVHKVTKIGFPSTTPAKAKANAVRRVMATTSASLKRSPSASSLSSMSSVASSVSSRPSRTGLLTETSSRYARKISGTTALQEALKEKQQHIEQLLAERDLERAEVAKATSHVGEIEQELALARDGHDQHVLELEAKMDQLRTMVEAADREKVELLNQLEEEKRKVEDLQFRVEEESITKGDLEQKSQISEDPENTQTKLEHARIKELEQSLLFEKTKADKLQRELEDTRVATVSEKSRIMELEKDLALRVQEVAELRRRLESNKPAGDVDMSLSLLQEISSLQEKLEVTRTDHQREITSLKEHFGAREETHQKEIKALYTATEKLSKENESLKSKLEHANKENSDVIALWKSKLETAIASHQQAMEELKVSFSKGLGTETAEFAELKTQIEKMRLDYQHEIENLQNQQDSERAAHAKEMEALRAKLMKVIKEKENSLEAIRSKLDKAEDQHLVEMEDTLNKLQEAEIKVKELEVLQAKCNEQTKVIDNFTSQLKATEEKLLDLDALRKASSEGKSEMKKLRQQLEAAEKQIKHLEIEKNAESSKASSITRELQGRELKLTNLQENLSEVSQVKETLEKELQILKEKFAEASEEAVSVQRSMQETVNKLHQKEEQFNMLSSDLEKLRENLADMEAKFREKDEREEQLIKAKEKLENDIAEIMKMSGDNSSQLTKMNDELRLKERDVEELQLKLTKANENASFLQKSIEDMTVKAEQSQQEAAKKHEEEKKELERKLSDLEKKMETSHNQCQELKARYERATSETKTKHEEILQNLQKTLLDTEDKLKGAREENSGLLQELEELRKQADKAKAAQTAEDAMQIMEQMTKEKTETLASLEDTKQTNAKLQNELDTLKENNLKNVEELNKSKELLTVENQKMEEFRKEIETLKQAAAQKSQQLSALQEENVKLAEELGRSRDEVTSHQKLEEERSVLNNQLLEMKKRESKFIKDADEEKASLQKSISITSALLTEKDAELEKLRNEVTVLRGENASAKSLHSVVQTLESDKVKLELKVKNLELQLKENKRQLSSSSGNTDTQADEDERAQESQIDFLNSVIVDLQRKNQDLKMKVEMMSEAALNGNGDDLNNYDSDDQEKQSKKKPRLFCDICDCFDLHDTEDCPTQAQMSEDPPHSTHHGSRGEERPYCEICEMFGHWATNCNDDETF

Key:
Experiment in all cases: log2 fold change, soluble protein after heating vs DMSO (PISA); higher = thermal stabilisation; K562 lysate, 10 uM; active = over 0.2 and 3.5 SD of the protein, either way, in both replicates (recomputed)
vemurafenib = compound: CCCS(=O)(=O)Nc1ccc(F)c(C(=O)c2c[nH]c3ncc(-c4ccc(Cl)cc4)cc23)c1F [vemurafenib]
Summary of the method: (§1)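 Thermal stability, expressed as log-two fold change relative to solvent controls, is given from duplicates. Crude K562 extract in PBS pH 7.4 with 1 mM MgCl2, at 1 mg/mL protein, was treated with 10 μM compound for 30 min and heated in aliquots for 3 min across 48°C-58°C. After pooling, adjustment to 0.5% NP-40 at 4°C and centrifugation at 21,000xg for 90 min, supernatant protein was measured by TMTpro 16plex LC-MS/MS with channel sums equalised.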

[1] = compound: CCCS(=O)(=O)Nc1ccc(F)c(C(=O)c2c[nH]c3ncc(Cl)cc23)c1F
Summary of the method: as §1

barasertib = compound: CCN(CCCOc1ccc2c(Nc3cc(CC(=O)Nc4cccc(F)c4)[nH]n3)ncnc2c1)CCOP(=O)(O)O [barasertib]
Summary of the method: as §1

[2] = compound: CC[C@@H]1C(=O)N(C)c2cnc(Nc3ccc(C(=O)NC4CCN(C)CC4)cc3OC)nc2N1C1CCCC1
Summary of the method: as §1

volasertib = compound: CC[C@@H]1C(=O)N(C)c2cnc(Nc3ccc(C(=O)N[C@H]4CC[C@H](N5CCN(CC6CC6)CC5)CC4)cc3OC)nc2N1C(C)C [volasertib]
Summary of the method: as §1

[3] = compound: CCn1c(C(=O)N(C2CC2)C2CC2)cc2c3c(ncn3C)c(Nc3cc(C)n(C)n3)nc21
Summary of the method: as §1

[4] = compound: CCn1cc(-c2ccnc3[nH]c(-c4cccc(CN(C)C)c4)cc23)c(-c2ccc(NC(=O)N(C)C)cc2)n1
Summary of the method: as §1

[5] = compound: CN1CCC(CNc2ccc3ncc(-c4cccc(OC(F)(F)F)c4)n3n2)CC1
Summary of the method: as §1

saracatinib = compound: CN1CCN(CCOc2cc(OC3CCOCC3)c3c(Nc4c(Cl)ccc5c4OCO5)ncnc3c2)CC1 [saracatinib]
Summary of the method: as §1

sotrastaurin = compound: CN1CCN(c2nc(C3=C(c4c[nH]c5ccccc45)C(=O)NC3=O)c3ccccc3n2)CC1 [sotrastaurin]
Summary of the method: as §1

alvocidib = compound: CN1CC[C@H](c2c(O)cc(O)c3c(=O)cc(-c4ccccc4Cl)oc23)[C@H](O)C1 [alvocidib]
Summary of the method: as §1

Tubastatin A = compound: CN1CCc2c(c3ccccc3n2Cc2ccc(C(=O)NO)cc2)C1 [Tubastatin A]
Summary of the method: as §1

defactinib = compound: CNC(=O)c1ccc(Nc2ncc(C(F)(F)F)c(NCc3nccnc3N(C)S(C)(=O)=O)n2)cc1 [defactinib]
Summary of the method: as §1

[6] = compound: CNc1nc(-c2ccc3c(N)n[nH]c3c2)cc(N2C[C@@H](C(=O)NC3CCCCC3)CC[C@H]2C)n1
Summary of the method: as §1

encorafenib = compound: COC(=O)N[C@@H](C)CNc1nccc(-c2cn(C(C)C)nc2-c2cc(Cl)cc(NS(C)(=O)=O)c2F)n1 [encorafenib]
Summary of the method: as §1

[7] = compound: COC(=O)[C@H](CCSC)NC(=O)C1=C(C=C(C=C1)NC[C@H](CS)N)C2=CC=CC=C2
Summary of the method: as §1

alisertib = compound: COc1cc(Nc2ncc3c(n2)-c2ccc(Cl)cc2C(c2c(F)cccc2OC)=NC3)ccc1C(=O)O [alisertib]
Summary of the method: as §1

[8] = compound: COc1cc2nc(-c3cc(F)ccc3O)nc(N[C@@H]3CNC[C@H]3C(C)(C)O)c2cc1OC
Summary of the method: as §1

gefitinib = compound: COc1cc2ncnc(Nc3ccc(F)c(Cl)c3)c2cc1OCCCN1CCOCC1 [gefitinib]
Summary of the method: as §1

[9] = compound: CNC(=O)C1=CC=CC=C1NC2=NC(=NC=C2Cl)NC3=C(C=C(C=C3)N4CCOCC4)OC
Summary of the method: as §1

| Target | log2 fold change (vemurafenib) | log2 fold change [1] | log2 fold change (barasertib) | log2 fold change [2] | log2 fold change (volasertib) | log2 fold change [3] | log2 fold change [4] | log2 fold change [5] | log2 fold change (saracatinib) | log2 fold change (sotrastaurin) | log2 fold change (alvocidib) | log2 fold change (Tubastatin A) | log2 fold change (defactinib) | log2 fold change [6] | log2 fold change (encorafenib) | log2 fold change [7] | log2 fold change (alisertib) | log2 fold change [8] | log2 fold change (gefitinib) | log2 fold change [9] |
| --- | --- | --- | --- | --- | --- | --- | --- | --- | --- | --- | --- | --- | --- | --- | --- | --- | --- | --- | --- | --- |
| CLYBL (UniProt Q8N0X4) | inactive: 0.012 | inactive: -0.101 | inactive: 0.008 | inactive: -0.01 | inactive: -0.033 | inactive: 0.11 | inactive: 0.045 | inactive: -0.024 | inactive: 0.031 | inactive: -0.116 | inactive: 0.02 | inactive: 0.016 | inactive: 0.021 | inactive: -0.01 | inactive: 0.149 | inactive: -0.003 | inactive: -0.335 | inactive: 0.121 | inactive: 0.021 | – |
| CISH isoform 3 (UniProt Q9NSE2) | inactive: -0.043 | – | – | – | – | – | – | – | – | – | – | – | inactive: 0.084 | – | – | – | – | – | – | – |
| CHD2 (UniProt O14647) | inactive: 0.185 | inactive: 0.107 | inactive: 0.12 | inactive: -0.09 | inactive: -0.113 | inactive: 0.031 | inactive: -0.129 | inactive: 0.055 | inactive: -0.029 | inactive: 0.017 | inactive: -0.029 | inactive: -0.079 | inactive: 0.128 | inactive: -0.171 | inactive: 0.07 | inactive: 0.081 | inactive: 0.009 | inactive: -0.03 | inactive: -0.021 | – |
| CKS2 (UniProt P33552) | inactive: -0.142 | – | – | inactive: -0.139 | – | – | inactive: -0.026 | inactive: 0.036 | – | – | inactive: 0.081 | – | inactive: -0.009 | – | inactive: 0.003 | inactive: -0.113 | inactive: 0.081 | – | inactive: -0.016 | – |
| CHCHD7 isoform 4 (UniProt Q9BUK0) | inactive: 0.026 | inactive: 0.06 | inactive: -0.026 | inactive: 0.073 | inactive: -0.064 | inactive: 0.021 | active: -0.71 | inactive: 0.155 | inactive: -0.021 | inactive: 0.077 | inactive: -0.097 | inactive: 0.082 | inactive: -0.009 | inactive: -0.141 | inactive: 0.005 | inactive: -0.003 | inactive: 0.177 | inactive: 0.027 | inactive: 0.118 | – |
| CLN5 (UniProt O75503) | inactive: 0.025 | inactive: -0.064 | inactive: 0.187 | inactive: -0.203 | inactive: -0.114 | – | inactive: 0.008 | inactive: 0.097 | – | – | inactive: 0.035 | – | inactive: 0.023 | – | inactive: -0.281 | inactive: 0.005 | inactive: 0.173 | inactive: -0.066 | inactive: -0.091 | inactive: -0.034 |
| CLK3 (UniProt P49761) | inactive: 0.101 | inactive: -0.008 | – | inactive: 0.027 | inactive: -0.03 | – | – | – | inactive: -0.056 | inactive: -0.065 | – | – | inactive: -0.004 | inactive: -0.144 | inactive: -0.032 | inactive: 0.122 | – | inactive: -0.003 | – | inactive: 0.032 |
| CHFR (UniProt Q96EP1) | inactive: -0.252 | inactive: 0.063 | – | inactive: -0.013 | inactive: 0.043 | inactive: 0.052 | – | – | inactive: 0.052 | inactive: 0.033 | – | inactive: -0.052 | active: -0.61 | inactive: -0.032 | inactive: 0.063 | inactive: -0.084 | inactive: 0.033 | inactive: 0.008 | inactive: -0.03 | inactive: 0.004 |
| CLIP1 isoform 2 (UniProt P30622) | – | inactive: 0.112 | inactive: -0.083 | inactive: 0.073 | inactive: 0.055 | inactive: -0.04 | inactive: -0.488 | inactive: 0.02 | inactive: 0.028 | inactive: -0.026 | inactive: 0.029 | inactive: 0.117 | – | inactive: 0.088 | inactive: -0.012 | inactive: -0.015 | inactive: -0.033 | inactive: -0.017 | inactive: -0.005 | inactive: -0.085 |
